Primary screen of a compound library

The chains behind the UniProt entries cited, without tags or fusion partners.
UniProt I6X8D2, whole entry: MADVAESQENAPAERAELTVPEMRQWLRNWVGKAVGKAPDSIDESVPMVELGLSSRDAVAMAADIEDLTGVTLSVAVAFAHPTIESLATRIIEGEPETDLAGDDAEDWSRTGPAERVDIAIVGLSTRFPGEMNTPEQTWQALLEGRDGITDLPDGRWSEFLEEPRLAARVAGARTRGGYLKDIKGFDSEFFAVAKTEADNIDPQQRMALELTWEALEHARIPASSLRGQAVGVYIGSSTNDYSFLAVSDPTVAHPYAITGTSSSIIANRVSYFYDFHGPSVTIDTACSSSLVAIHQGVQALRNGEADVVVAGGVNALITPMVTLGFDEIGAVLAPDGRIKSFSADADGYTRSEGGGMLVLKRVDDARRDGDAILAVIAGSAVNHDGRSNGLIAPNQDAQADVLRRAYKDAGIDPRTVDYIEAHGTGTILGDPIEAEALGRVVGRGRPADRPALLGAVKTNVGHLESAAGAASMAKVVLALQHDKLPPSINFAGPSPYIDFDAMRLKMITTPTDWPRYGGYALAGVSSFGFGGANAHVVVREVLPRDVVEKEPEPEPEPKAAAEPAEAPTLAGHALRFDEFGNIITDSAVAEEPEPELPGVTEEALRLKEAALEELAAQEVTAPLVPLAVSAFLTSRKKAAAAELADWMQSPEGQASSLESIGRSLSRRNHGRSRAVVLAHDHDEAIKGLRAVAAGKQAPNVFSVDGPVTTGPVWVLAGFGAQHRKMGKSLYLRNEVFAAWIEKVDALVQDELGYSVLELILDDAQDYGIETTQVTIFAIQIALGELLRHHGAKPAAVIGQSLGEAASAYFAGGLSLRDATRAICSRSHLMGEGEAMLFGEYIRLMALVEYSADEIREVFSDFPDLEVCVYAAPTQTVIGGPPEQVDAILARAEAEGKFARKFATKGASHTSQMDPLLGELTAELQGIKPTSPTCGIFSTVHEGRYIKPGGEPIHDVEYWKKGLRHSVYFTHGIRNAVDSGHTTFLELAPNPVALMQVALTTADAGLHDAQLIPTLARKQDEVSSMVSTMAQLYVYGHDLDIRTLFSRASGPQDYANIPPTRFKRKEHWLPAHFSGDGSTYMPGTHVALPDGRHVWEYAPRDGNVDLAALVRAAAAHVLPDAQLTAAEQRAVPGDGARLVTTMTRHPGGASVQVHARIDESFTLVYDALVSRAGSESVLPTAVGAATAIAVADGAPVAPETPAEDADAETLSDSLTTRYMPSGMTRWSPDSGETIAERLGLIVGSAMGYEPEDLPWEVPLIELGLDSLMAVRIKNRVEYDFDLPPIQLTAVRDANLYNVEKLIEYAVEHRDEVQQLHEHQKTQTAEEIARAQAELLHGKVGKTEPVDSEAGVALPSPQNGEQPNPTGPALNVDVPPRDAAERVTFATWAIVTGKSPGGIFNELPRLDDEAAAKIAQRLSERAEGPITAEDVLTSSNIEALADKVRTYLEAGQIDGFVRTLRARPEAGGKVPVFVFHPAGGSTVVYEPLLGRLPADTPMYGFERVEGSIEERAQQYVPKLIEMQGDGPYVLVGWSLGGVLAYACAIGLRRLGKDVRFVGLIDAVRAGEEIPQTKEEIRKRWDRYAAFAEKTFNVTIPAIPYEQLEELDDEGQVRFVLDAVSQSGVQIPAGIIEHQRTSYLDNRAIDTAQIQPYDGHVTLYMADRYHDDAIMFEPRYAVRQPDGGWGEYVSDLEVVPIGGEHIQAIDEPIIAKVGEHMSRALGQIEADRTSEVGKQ
UniProt P9WNZ1, whole entry: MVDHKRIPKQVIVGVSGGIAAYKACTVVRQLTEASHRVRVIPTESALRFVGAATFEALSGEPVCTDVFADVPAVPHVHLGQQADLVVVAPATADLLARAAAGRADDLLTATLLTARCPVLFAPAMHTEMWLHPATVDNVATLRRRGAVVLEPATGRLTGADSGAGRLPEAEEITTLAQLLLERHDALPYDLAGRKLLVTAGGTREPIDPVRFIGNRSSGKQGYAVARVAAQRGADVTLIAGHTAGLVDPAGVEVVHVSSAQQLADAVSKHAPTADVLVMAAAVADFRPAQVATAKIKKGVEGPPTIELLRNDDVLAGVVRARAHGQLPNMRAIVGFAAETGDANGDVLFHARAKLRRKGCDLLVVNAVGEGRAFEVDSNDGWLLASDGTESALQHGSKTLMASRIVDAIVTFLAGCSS
UniProt P9WFT3, whole entry: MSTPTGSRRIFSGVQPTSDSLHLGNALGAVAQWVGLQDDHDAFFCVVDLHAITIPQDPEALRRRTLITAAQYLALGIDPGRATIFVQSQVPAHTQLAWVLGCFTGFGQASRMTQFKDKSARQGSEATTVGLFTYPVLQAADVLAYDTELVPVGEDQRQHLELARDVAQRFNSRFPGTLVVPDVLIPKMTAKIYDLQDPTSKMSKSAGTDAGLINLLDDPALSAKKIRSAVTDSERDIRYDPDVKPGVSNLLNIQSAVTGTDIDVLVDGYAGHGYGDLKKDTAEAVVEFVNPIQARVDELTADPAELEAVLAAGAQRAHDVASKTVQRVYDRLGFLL

Source: ChEMBL document CHEMBL3988442, “University of Dundee, Small-Polar-MMV Screening Library” (2021).

The filed quantity is “Percent Effect” (%). The record does not define 0% and 100%; most values in the screen are far below 50% and negative numbers occur (in some assays of this library far below -100). Compounds were drawn at random from those tested, without regard to their results. Two or more numbers in one place are separate tests of the same structure; such repeats can differ widely. A dash means the value is not listed here; it may have been measured.

A: 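Enzyme assay of the thioesterase domain of polyketide synthase 13; the read-out is not stated. Target: Polyketide synthase Pks13, Mycobacterium tuberculosis (UniProt I6X8D2). Tested at 30 µM. The record gives no direction; the compounds picked for IC50 retests had high values, so higher reads as stronger inhibition. Size under these conditions: about 67,000 compounds, about 300 of them at 50% or above in at least one test.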
B: 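Coenzyme A biosynthesis protein CoaBC, Mycobacterium tuberculosis (UniProt P9WNZ1). Enzyme assay of CoaBC with a phosphate dye (Biomol Green) read at 650 nm. Compounds at 30 µM. Higher reads as stronger inhibition, judged from the few compounds that gave an IC50. Most strong results did not repeat in a second test. Size under these conditions: about 67,000 compounds, about 40 of them at 50% or above in at least one test.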
C: 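Cell assay of Leishmania donovani living inside macrophages; the read-out is not stated. Compounds at 30 µM. The record gives no direction; compounds that gave an IC50 in retests scored well above the rest, so higher reads as stronger inhibition. About 69,000 compounds were tested under these conditions; 1.5% (about 1,000) showed 50% or more at least once.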
D: 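Enzyme assay of tryptophanyl-tRNA synthetase; the read-out is not stated. Target: Tryptophan-tRNA ligase, Mycobacterium tuberculosis (UniProt P9WFT3). Tested at 10 µM. Direction is not recorded; retested compounds ran higher, which suggests that high means inhibition. Of about 65,000 compounds tested this way, about 64 (0.098%) reached 50% or more in at least one test.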

| structure | A | B | C | D |
|---|---|---|---|---|
| `CCC(CNC(=O)c1nc(=O)[nH][nH]1)Oc1cccc(C(F)(F)F)c1` (stereo unspecified) | -29.01% | -1.711% | 11.69% | -0.149% |
| `CCOc1ccc(-n2nnc(C(=O)O)c2-c2ccccn2)cc1` | -27.66% | 2.294% | 23.35% | 1.589% |
| `CC(C)n1nc(Cn2cccn2)c2c1CN(C1CCOC1)C2` (stereo unspecified) | -20.29% | -14.87% | - | -2.885% |
| `COc1cccc(OCCNS(=O)(=O)Cc2ccccc2)c1` | 18.19% | -1.942% | -42.66% | -1.728% |
| `COCC1COCCC12CCN(CCc1ccccc1)CC2` (stereo unspecified) | -16.82% | -1.863% | - | 0.5629% |
| `CCc1nc(C2CCCN(C(=O)c3cccc(C(N)=O)c3)C2)no1` (stereo unspecified) | -14.75% | 3.394% | 21.11% | -2.382% |
| `CCCNC(=O)C(C)Nc1ccc(COCC)cc1` (stereo unspecified) | -3.254% | -1.491% | 25.29% | -1.321% |
| `CCn1c(N)nc2cc(C(=O)N3CCN(CC(F)(F)F)CC3)cnc21` | -5.172% | 5.455% | 9.804% | 1.636% |
| `[H][C@]12CCNC[C@@]1([H])OCCN(Cc1csc(C)n1)C2` | - | - | 19.21% | - |
| `Cc1ccc2c(n1)N(CCN(C)C)CCN(C(=O)c1ccsc1)C2` | -2.065% | 2.596% | 17.89% | -2.805% |
| `Cc1nnc(NC(=O)NCC(C)N2CCOCC2)s1` (stereo unspecified) | -1.1% | 3.502% | -7.861% | -4.748% |
| `O=C(O)C(F)(F)F.[H][C@]12CCCN(CC3CCOCC3)[C@@]1([H])CN(C(=O)c1ccco1)C2` | - | - | 14.8% | - |
| `CCCn1c(N2CCCC2)nc2c(C)nn(C)c2c1=O` | 67% | 5.312% | -64.29% | 1.813% |
| `Cc1cc(C)c2[nH]c(C)c(CC(=O)N(C)CCN(C)C)c2c1` | 9.805% | -3.874% | - | -3.59% |
| `CC1Cc2ccccc2N1C(=O)Cn1nc(-c2cccs2)cc(N)c1=O` (stereo unspecified) | -7.815% | 6.993% | 27.69% | -5.23% |
| `CCCN(CCC)c1ncc(S(=O)(=O)c2cccc(C)c2)c(N)n1` | -5.66% | 2.358% | 25.19% | -6.928% |
| `COc1cc(N2CCC3(CC2)CCN(c2cccnc2)C3=O)ncn1.O=C(O)C(F)(F)F` | - | - | 30.55% | - |
| `CCn1cc(NC(=O)C2CCN(Cc3nc(C)c(C)o3)CC2)cn1` | 2.241% | 3.562% | 5.272% and 25.72% | 3.987% |
| `CN(Cc1ccc(-n2ccnc2)cc1)Cc1ncc[nH]1` | -29.58% | 7.613% | 36.13% | -3.32% |
| `O=C(CC(F)(F)F)N1CCc2[nH]nc(-c3ccc4c(c3)OCO4)c2C1` | -30.39% | 2.804% | -30.73% | -4.503% |
| `Cc1cc(C(=O)NC2CCc3c(ccc(=O)n3CC(C)C)C2)no1` (stereo unspecified) | 10.94% | 2.683% | 7.062% | - |
| `Cc1cc(C)n(CC(C)NC(=O)NCc2c(C)cc(C)[nH]c2=O)n1` (stereo unspecified) | -0.8152% | 4.669% | -21.92% | 7.407% |
| `c1ccc(Oc2ncccc2CNCc2ccccn2)cc1` | -15.27% | 5.04% | 30.49% | -2.624% |
| `CCCn1cc(-c2ccnc(NC3CCc4ccccc4C3)n2)c(C)n1` (stereo unspecified) | -27.01% | 4.668% | 13.99% | 6.667% |
| `CC1CN(S(=O)(=O)c2ccc(C(=O)NCC(F)F)cc2)CCCO1` (stereo unspecified) | 2.871% | 6.582% | 24.48% | -1.089% |
| `Cc1occc1C(=O)Nc1cccc(C(=O)OCC2CCCN2)c1` (stereo unspecified) | -10.91% | 4.294% | - | 2.056% |
| `Cc1nn(C)c2nc(C(C)C)cc(C(=O)Nc3n[nH]c(C4CC4)n3)c12` | 7.14% | 7.825% | 8.159% | 21.16% |
| `[H][C@]12CC[C@]([H])(CN(C(=O)c3ccccc3)C1)N(C(=O)CN1CCOC1=O)C2` | - | - | 10.12% | - |
| `Cc1nc(C)n(CC2CCCN2Cc2cn3ccccc3n2)n1` (stereo unspecified) | 3.226% | 7.833% | 25.07% | -3.874% |
| `[H][C@@]12CCN(C(=O)c3cccnc3)C[C@]1([H])[C@@H](CNS(C)(=O)=O)OC2` | - | - | 10.26% | - |
| `O=C(O)C(F)(F)F.O=C(O)C(F)(F)F.O=C(O)C(F)(F)F.c1cnc(NCc2noc3c2CN(CCN2CCCC2)CC3)nc1` | - | - | 31.92% | - |
| `O=S(=O)(NCCn1cc(C2CCCNC2)nn1)c1ccc(Cl)cc1` (stereo unspecified) | -1.592% | -4.902% | -5.935% | 4.938% |
| `CCCc1nc(CN2CCCN(Cc3nccn3C)CC2)no1` | -1.002% | -0.2611% | 36.47% | -3.278% |
| `Cc1ccc(CN2Cc3ccnn3CC(COCc3cccnc3)C2)o1` (stereo unspecified) | 3.554% | -2.336% | 0.8522% | -0.2549% |
| `Cc1nnsc1C(=O)N1C[C@H]2CC[C@@H]1CN(c1cnccn1)C2` | 0.9336% | 6.352% | - | -1.264% |
| `COc1ccc(C(=O)O)cc1-c1cccc2c1CCNC2` | -8.277% | 2.716% | 15.78% | -7.518% |
| `Fc1cnc(N2CC[C@@H]3CN(Cc4ccncc4)CCO[C@@H]3C2)nc1` | -13.57% | -5.499% | - | 2.525% |
| `CN(Cc1ccncc1)C1COC2(CCN(Cc3cccs3)CC2)C1.O=C(O)C(F)(F)F.O=C(O)C(F)(F)F.O=C(O)C(F)(F)F` (stereo unspecified) | - | - | 0.2396% | - |
| `OC1CCN(c2ccc(CNc3nc4ccccc4o3)cc2F)CC1` | -14.6% | 8.147% | 10.12% | 0.892% |
| `CC(C)NC(=O)NC(C)c1nc(-c2ccccc2)cs1` (stereo unspecified) | 0.6664% | -0.3891% | -8.355% | -0.5698% |
| `N#Cc1cccc(OCCCN2CCN(C(=O)c3ccoc3)CC2)c1` | 5.885% | 0.4032% | 24.57% | 1.09% |
| `COCCN1CCCn2c(nc(CNC(=O)COC)cc2=O)C1.O=C(O)C(F)(F)F` | - | - | 69.63% | - |
| `COCCCNC(=O)Nc1cccc(Cl)c1-n1cccn1` | -0.8307% | 0.9346% | -9.64% | -3.614% |
| `O=C(NC[C@H]1OC[C@@H](NC2COC2)[C@@H]1O)c1ccccc1` | -21.72% | -1.987% | 20.96% | -3.87% |
| `Cc1nnc(NC(=O)NCc2ccc(F)cc2)s1` | -0.8178% | -1.195% | 13.71% | -0.2901% |
| `Cc1cc(Cc2ccccc2F)cc(C2CCCNC2)n1` (stereo unspecified) | -1.192% | 3.398% | 9.469% | -2.467% |
| `O=C(Nc1cn[nH]c1)N1CCN(CCSc2ccccc2)CC1` | -21.95% | 2.908% | 33.28% | 1.713% |
| `Cc1cc(CN2C[C@@H]3COC[C@]3(CNC(=O)N3CCCC3)C2)no1` | -21.27% | 2.792% | - | -3.539% |

The last 3 entries again:

Result for Cc1cc(Cc2ccccc2F)cc(C2CCCNC2)n1 (stereo unspecified) was A: -1.192%; B: 3.398%; C: 9.469%; D: -2.467%.
Result for O=C(Nc1cn[nH]c1)N1CCN(CCSc2ccccc2)CC1 was A: -21.95%; B: 2.908%; C: 33.28%; D: 1.713%.
Result for Cc1cc(CN2C[C@@H]3COC[C@]3(CNC(=O)N3CCCC3)C2)no1 was A: -21.27%; B: 2.792%; D: -3.539%.